PubChem BioAssay AID1259425 | University of Nebraska Medical Center | 2018

Assay: 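Compare each knockdown with KSR1 silencing using changes in marker transcripts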 (primary screen)
Cells: HCT116 human colon cancer cells
Reagent: siRNA pool against human genes, 50 nM siRNA
Detection: 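mRNA of six signature genes measured together by branched-DNA assay after 50 nM siRNA pool, blank removed, divided by geometric mean of two housekeeping genes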
Reading the numbers: BNIP3L mRNA: higher = more BNIP3L transcript after knockdown
Here is one part, drawn at random, of about 14,000 deposited reagents. The numbers tell different reagents against one gene apart. Further read-outs or replicates are left out here. Not stated in the record: the time to read-out.

{"gene knocked down": "KMT5A (lysine methyltransferase 5A)", "reagent": 1, "BNIP3L mRNA, set 1": 0.132}
{"gene knocked down": "ZNF117 (zinc finger protein 117)", "reagent": 1, "BNIP3L mRNA, set 1": 0.122}
{"gene knocked down": "ZNF117 (zinc finger protein 117)", "reagent": 2, "BNIP3L mRNA, set 1": 0.328}
{"gene knocked down": "HAPLN2 (hyaluronan and proteoglycan link protein 2)", "reagent": 1, "BNIP3L mRNA, set 1": 0.0395}
{"gene knocked down": "PLXNA2 (plexin A2)", "reagent": 1, "BNIP3L mRNA, set 1": 0.124}
{"gene knocked down": "SET (SET nuclear proto-oncogene)", "reagent": 1, "BNIP3L mRNA, set 1": 0.178}
{"gene knocked down": "ZNF594 (zinc finger protein 594)", "reagent": 1, "BNIP3L mRNA, set 1": 0.0716}
{"gene knocked down": "MYO6 (myosin VI)", "reagent": 1, "BNIP3L mRNA, set 1": 0.0607}
{"gene knocked down": "RBM3 (RNA binding motif protein 3)", "reagent": 1, "BNIP3L mRNA, set 1": 0.109}
{"gene knocked down": "MTMR9 (myotubularin related protein 9)", "reagent": 1, "BNIP3L mRNA, set 1": 0.102}
{"gene knocked down": "AHSA2P (activator of HSP90 ATPase homolog 2, pseudogene)", "reagent": 1, "BNIP3L mRNA, set 1": 0.0771}
{"gene knocked down": "AIFM2 (AIF family member 2, ferroptosis suppressor)", "reagent": 1, "BNIP3L mRNA, set 1": 0.26}
{"gene knocked down": "TMOD4 (tropomodulin 4)", "reagent": 1, "BNIP3L mRNA, set 1": 0.137}
{"gene knocked down": "RELN (reelin)", "reagent": 1, "BNIP3L mRNA, set 1": 0.0708}
{"gene knocked down": "ZFYVE21 (zinc finger FYVE-type containing 21)", "reagent": 1, "BNIP3L mRNA, set 1": 0.184}
{"gene knocked down": "THBS1 (thrombospondin 1)", "reagent": 1, "BNIP3L mRNA, set 1": 0.113}
{"gene knocked down": "HBZ (hemoglobin subunit zeta)", "reagent": 1, "BNIP3L mRNA, set 1": 0.131}
{"gene knocked down": "RUSC1 (RUN and SH3 domain containing 1)", "reagent": 1, "BNIP3L mRNA, set 1": 0.154}
{"gene knocked down": "YTHDC2 (YTH N6-methyladenosine RNA binding protein C2)", "reagent": 1, "BNIP3L mRNA, set 1": 0.14}
{"gene knocked down": "CD79B (CD79b molecule)", "reagent": 1, "BNIP3L mRNA, set 1": 0.129}
{"gene knocked down": "SDC2 (syndecan 2)", "reagent": 1, "BNIP3L mRNA, set 1": 0.133}
{"gene knocked down": "MAPK4 (mitogen-activated protein kinase 4)", "reagent": 1, "BNIP3L mRNA, set 1": 0.0643}
{"gene knocked down": "TUBA1C (tubulin alpha 1c)", "reagent": 1, "BNIP3L mRNA, set 1": 0.186}
{"gene knocked down": "REPS1 (RALBP1 associated Eps domain containing 1)", "reagent": 1, "BNIP3L mRNA, set 1": 0.131}
{"gene knocked down": "SFI1 (SFI1 centrin binding protein)", "reagent": 1, "BNIP3L mRNA, set 1": 0.173}
{"gene knocked down": "USP31 (ubiquitin specific peptidase 31)", "reagent": 1, "BNIP3L mRNA, set 1": 0.11}
{"gene knocked down": "GRHL3 (grainyhead like transcription factor 3)", "reagent": 1, "BNIP3L mRNA, set 1": 0.134}
{"gene knocked down": "RETNLB (resistin like beta)", "reagent": 1, "BNIP3L mRNA, set 1": 0.164}

No new results follow: entries from further up.
{"gene knocked down": "ZNF117 (zinc finger protein 117)", "reagent": 1, "BNIP3L mRNA, set 1": 0.122}
{"gene knocked down": "ZNF117 (zinc finger protein 117)", "reagent": 2, "BNIP3L mRNA, set 1": 0.328}
{"gene knocked down": "HAPLN2 (hyaluronan and proteoglycan link protein 2)", "reagent": 1, "BNIP3L mRNA, set 1": 0.0395}
